Reference: PubChem BioAssay AID686938 (Drosophila RNAi Screening Center, 2013)
Assay: 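Fly genes required for calcium entry once internal stores are emptied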 (primary screen). Cells: Drosophila S2R+ cells. Reagents: long dsRNA against Drosophila genes, about 0.25 µg dsRNA per well, roughly 10,000 cells. Duration: 5 days of knock-down before the calcium assay. Challenge: thapsigargin (SERCA pump blocker) to empty calcium stores; entry signal taken 4 min after adding it. Measurement: 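Duplicate raw fluo-4 intensities per well from a plate reader, at rest and four minutes after thapsigargin emptied calcium stores; entry-to-rest ratio filled for only some wells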. Scale: calcium entry signal: higher = stronger calcium signal after store depletion; resting calcium signal: higher = higher resting calcium signal. Units: calcium entry signal in fluorescence units; resting calcium signal in fluorescence units. Active means: 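Hit if the duplicate-averaged plate z-score for entry over resting signal is under −3; wells with weak total dye signal (Fmax z < −2) or more than 5 off-targets removed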. Meaning of the calls: active = strongly reduced calcium entry; inactive = no strong reduction.
The screen tested about 23,000 reagents; shown is an unselected part of those with a known target gene and a result. In the full data, 75 (0.33%) were called active. 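Raw plate signals without normalisation; calls rest on plate z-scores that were not deposited; ratio present for only 364 wells.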 Not stated in the record: the dose of the treatment.

What did the screen give for CG11857 [DRSC14411]?
calcium entry signal, replicate 1: 4.33e7; calcium entry signal, replicate 2: 6.11e7; resting calcium signal, replicate 1: 2.75e7; resting calcium signal, replicate 2: 3.46e7; call: inactive

What is on record for CR31054 [DRSC22134]?
calcium entry signal, replicate 1: 2.61e7; calcium entry signal, replicate 2: 4.44e7; resting calcium signal, replicate 1: 1.22e7; resting calcium signal, replicate 2: 1.87e7; call: inactive

What is on record for Dcp-1 [DRSC04609]?
calcium entry signal, replicate 1: 4.44e7; resting calcium signal, replicate 1: 2.04e7; call: inactive

Which result is listed for CG42445 [DRSC10858]?
calcium entry signal, replicate 1: 4.71e7; calcium entry signal, replicate 2: 5.05e7; resting calcium signal, replicate 1: 2.88e7; resting calcium signal, replicate 2: 2.08e7; call: inactive

For VepD [DRSC22318], what was measured?
calcium entry signal, replicate 1: 3.74e7; calcium entry signal, replicate 2: 5.55e7; resting calcium signal, replicate 1: 1.84e7; resting calcium signal, replicate 2: 2.71e7; call: inactive

For CG7791 [DRSC04891], how do the results read?
calcium entry signal, replicate 1: 3.64e7; resting calcium signal, replicate 1: 1.97e7; call: inactive

For CG17681 [DRSC02632], how do the results read?
calcium entry signal, replicate 1: 4.91e7; calcium entry signal, replicate 2: 3.63e7; resting calcium signal, replicate 1: 2.10e7; resting calcium signal, replicate 2: 1.72e7; call: inactive

Which result is listed for Cc2d2a [DRSC06750]?
calcium entry signal, replicate 1: 5.05e7; calcium entry signal, replicate 2: 5.47e7; resting calcium signal, replicate 1: 2.47e7; resting calcium signal, replicate 2: 2.72e7; call: inactive

For Cc2d2a [DRSC06779], how do the results read?
calcium entry signal, replicate 1: 5.16e7; calcium entry signal, replicate 2: 6.36e7; resting calcium signal, replicate 1: 2.17e7; resting calcium signal, replicate 2: 2.96e7; call: inactive

For sNPF [DRSC02309], what does the deposit list?
calcium entry signal, replicate 1: 3.80e7; calcium entry signal, replicate 2: 3.80e7; resting calcium signal, replicate 1: 1.78e7; resting calcium signal, replicate 2: 1.75e7; call: inactive

What is on record for CG9705 [DRSC11094]?
calcium entry signal, replicate 1: 2.34e7; calcium entry signal, replicate 2: 3.38e7; resting calcium signal, replicate 1: 1.22e7; resting calcium signal, replicate 2: 2.28e7; call: inactive

What did the screen give for CG13445 [DRSC09992]?
calcium entry signal, replicate 1: 3.52e7; calcium entry signal, replicate 2: 4.45e7; resting calcium signal, replicate 1: 1.81e7; resting calcium signal, replicate 2: 1.96e7; call: inactive

With Hr3 [DRSC06118], what does the deposit list?
calcium entry signal, replicate 1: 3.81e7; calcium entry signal, replicate 2: 4.11e7; resting calcium signal, replicate 1: 1.82e7; resting calcium signal, replicate 2: 1.66e7; call: inactive

For Hr3 [DRSC07441], what was measured?
calcium entry signal, replicate 1: 4.06e7; calcium entry signal, replicate 2: 4.20e7; resting calcium signal, replicate 1: 1.73e7; resting calcium signal, replicate 2: 1.86e7; call: inactive

Which result is listed for Zw [DRSC20303]?
calcium entry signal, replicate 1: 3.22e7; calcium entry signal, replicate 2: 2.97e7; resting calcium signal, replicate 1: 1.60e7; resting calcium signal, replicate 2: 1.39e7; call: inactive

For CG15561 [DRSC15100], how do the results read?
calcium entry signal, replicate 1: 4.97e7; calcium entry signal, replicate 2: 4.97e7; resting calcium signal, replicate 1: 2.44e7; resting calcium signal, replicate 2: 2.06e7; call: inactive

For CG18636 [DRSC02685], how do the results read?
calcium entry signal, replicate 1: 3.64e7; calcium entry signal, replicate 2: 2.31e7; resting calcium signal, replicate 1: 1.75e7; resting calcium signal, replicate 2: 1.09e7; call: inactive

Which result is listed for retinin [DRSC09940]?
calcium entry signal, replicate 1: 5.08e7; calcium entry signal, replicate 2: 7.17e7; resting calcium signal, replicate 1: 2.33e7; resting calcium signal, replicate 2: 2.77e7; call: inactive

Records above whose gene name begins with H or h:
Hr3 [DRSC06118] → calcium entry signal, replicate 1 = 3.81e7; calcium entry signal, replicate 2 = 4.11e7; resting calcium signal, replicate 1 = 1.82e7; resting calcium signal, replicate 2 = 1.66e7; call = inactive
Hr3 [DRSC07441] → calcium entry signal, replicate 1 = 4.06e7; calcium entry signal, replicate 2 = 4.20e7; resting calcium signal, replicate 1 = 1.73e7; resting calcium signal, replicate 2 = 1.86e7; call = inactive

The listing continues.
Which result is listed for Pdzd8 [DRSC19355]?
calcium entry signal, replicate 1: 3.40e7; calcium entry signal, replicate 2: 5.08e7; resting calcium signal, replicate 1: 1.56e7; resting calcium signal, replicate 2: 2.33e7; call: inactive

How did the screen score CG30036 [DRSC21334]?
calcium entry signal, replicate 1: 2.12e7; calcium entry signal, replicate 2: 2.79e7; resting calcium signal, replicate 1: 1.15e7; resting calcium signal, replicate 2: 1.33e7; call: inactive

For CG17570 [DRSC01770], what was measured?
calcium entry signal, replicate 1: 2.62e7; calcium entry signal, replicate 2: 4.35e7; resting calcium signal, replicate 1: 1.28e7; resting calcium signal, replicate 2: 1.68e7; call: inactive

With CG17570 [DRSC03754], what was measured?
calcium entry signal, replicate 1: 4.84e7; calcium entry signal, replicate 2: 5.11e7; resting calcium signal, replicate 1: 2.53e7; resting calcium signal, replicate 2: 2.11e7; call: inactive

With PIG-Wa [DRSC00728], how do the results read?
calcium entry signal, replicate 1: 4.08e7; calcium entry signal, replicate 2: 3.22e7; resting calcium signal, replicate 1: 1.80e7; resting calcium signal, replicate 2: 1.52e7; call: inactive

For CRAT [DRSC12523], what was measured?
calcium entry signal, replicate 1: 3.31e7; calcium entry signal, replicate 2: 2.80e7; resting calcium signal, replicate 1: 1.68e7; resting calcium signal, replicate 2: 1.38e7; call: inactive

Which result is listed for Appl [DRSC17728]?
calcium entry signal, replicate 1: 4.35e7; calcium entry signal, replicate 2: 4.80e7; resting calcium signal, replicate 1: 1.87e7; resting calcium signal, replicate 2: 2.20e7; call: inactive

What is on record for CG4301 [DRSC19886]?
calcium entry signal, replicate 1: 2.28e7; calcium entry signal, replicate 2: 2.86e7; resting calcium signal, replicate 1: 1.27e7; resting calcium signal, replicate 2: 1.27e7; call: inactive

For Coq8 [DRSC19900], what does the deposit list?
calcium entry signal, replicate 1: 3.41e7; calcium entry signal, replicate 2: 4.71e7; resting calcium signal, replicate 1: 1.81e7; resting calcium signal, replicate 2: 2.34e7; call: inactive
